Measured values as given in US3969522A, “Diaryl-pyridyl-imidazole methanes for treating mycotic infections” (Bayer Aktiengesellschaft, priority 1972, dated 1976).
At least one structure is not confirmed: it was looked up by name or label, or the drawing left a doubt.

Legend:
[1] = test system: Quinckeanum infection in mice; assay: Quinckeanum Trichophytosis of white mice, oral treatment; assay type: in vivo; details: 12.5 mg/kg of body weight, orally twice daily up to the eighth day of the infection
[2] = test system: dermatophytes, especially Trichophyton; details: prior art compounds; cited from earlier work

SMILES	development of the Quinckeanum infection in mice [1]	activity in vitro and in vivo against dermatophytes, especially varieties of Trichophyton [2]
Cc1cccc(C(c2ccccc2)(c2ccccn2)n2ccnc2)c1C (stereo not drawn) [Example 7, 1-(2,3-dimethylphenyl-phenyl-2-pyridyl)-methyl-imidazole]	completely suppressed	–
Fc1ccc(C(c2ccccc2)(c2ccccn2)n2ccnc2)cc1 (stereo not drawn) [Known Compound 1, 1-(4-fluorophenyl-phenyl-2-pyridyl)-methylimidazole, reference compound]	–	generally unsatisfactory
FC(F)(F)c1cccc(C(c2ccccc2)(c2ccccn2)n2ccnc2)c1 (stereo not drawn) [Known Compound 2, 1-(3-trifluoromethylphenyl-phenyl-2-pyridyl)-methylimidazole, reference compound]	–	generally unsatisfactory
